In paper PMC6131148:
Results are given in words; binding and its absence hold for the method and conditions named. In cells and extracts the contact can be indirect. Some binding calls cover weakened binding; strength is not graded here. For part of these data: Tags and fused reporters may be left off the sequences shown.

Amino acid sequences for entries named in this document (tags omitted).
UniProt Q86TM6: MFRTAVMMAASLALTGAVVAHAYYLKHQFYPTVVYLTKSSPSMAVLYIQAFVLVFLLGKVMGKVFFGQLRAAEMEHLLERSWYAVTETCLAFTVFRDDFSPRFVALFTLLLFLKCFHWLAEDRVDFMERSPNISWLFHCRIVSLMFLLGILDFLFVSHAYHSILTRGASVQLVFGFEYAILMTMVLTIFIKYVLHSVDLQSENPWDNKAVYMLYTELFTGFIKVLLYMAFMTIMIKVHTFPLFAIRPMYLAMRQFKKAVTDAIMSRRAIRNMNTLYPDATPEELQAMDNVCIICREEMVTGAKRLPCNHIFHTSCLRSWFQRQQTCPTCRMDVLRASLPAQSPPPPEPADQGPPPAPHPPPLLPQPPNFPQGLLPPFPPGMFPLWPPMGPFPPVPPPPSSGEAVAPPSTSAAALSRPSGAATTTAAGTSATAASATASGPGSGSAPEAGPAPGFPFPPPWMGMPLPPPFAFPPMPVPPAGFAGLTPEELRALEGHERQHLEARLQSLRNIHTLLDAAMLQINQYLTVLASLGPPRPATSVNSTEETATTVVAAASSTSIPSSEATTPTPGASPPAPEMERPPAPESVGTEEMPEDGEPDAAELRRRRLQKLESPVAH

The binders below were run against HRD1, full-length expression plasmid, transfected (UniProt Q86TM6) (assay: co-IP; transiently transfected HEK293 cells, lysed 24 h after transfection; immunoprecipitation with protein-G sepharose and immunoblotting).

binding | Binder
binds | Mouse HSD17B4 in pCMV-Myc, transfected (enzyme, UniProt P51660 1-735) MASPLRFDGRVVLVTGAGGGLGRAYALAFAERGALVIVNDLGGDFKGIGKGSSAADKVVAEIRRKGGKAVANYDSVEAGEKLVKTALDTFGRIDVVVNNAGILRDRSFSRISDEDWDIIHRVHLRGSFQVTRAAWDHMKKQNYGRILMTSSASGIYGNFGQANYSAAKLGILGLCNTLAIEGRKNNIHCNTIAPNAGSRMTETVLPEDLVEALKPEYVAPLVLWLCHESCEENGGLFEVGAGWIGKLRWERTLGAIVRKRNQPMTPEAVRDNWEKICDFSNASKPQTIQESTGGIVEVLHKVDSEGISPNRTSHAAPAATSGFVGAVGHKLPSFSSSYTELQSIMYALGVGASVKNPKDLKFVYEGSADFSCLPTFGVIVAQKSMMNGGLAEVPGLSFNFAKALHGEQYLELYKPLPRSGELKCEAVIADILDKGSGVVIVMDVYSYSGKELICYNQFSVFVVGSGGFGGKRTSEKLKAAVAVPNRPPDAVLRDATSLNQAALYRLSGDWNPLHIDPDFASVAGFEKPILHGLCTFGFSARHVLQQFADNDVSRFKAIKVRFAKPVYPGQTLQTEMWKEGNRIHFQTKVHETGDVVISNAYVDLVPASGVSTQTPSEGGELQSALVFGEIGRRLKSVGREVVKKANAVFEWHITKGGTVAAKWTIDLKSGSGEVYQGPAKGSADVTIIISDEDFMEVVFGKLDPQKAFFSGRLKARGNIMLSQKLQMILKDYAKL
binds | RMND1, transfected (protein, UniProt Q8CI78 6-450) LHTLASLHSISAKAHQCQRLTWLTLRPLRKSESTTCHNGLTIQQHLHSFFPSITADSLNKPEILEMSRITSDTSRLFPLNAVHWLDGKEHWPSMHPFGTHRSMTHKPNLLCSKWFIKAVKRHHSSVSNEALVPKQDLPQIKRPLKASRTRQPSRTNLPDLSVNEDLMQCTAFATADEYHLGSLSQELVSCGYVEVTSLPRDAANILVMGVESSAKEGDPGTIFLFREGAAVFWNVKEKTMKHVMQVLERHETQPYEVALVHWENEELNYIKTEGQSKLHRGEIKLNSELDLDDAILEKFAFSNALCLSVKLAIWEATLDKFIESIQSIPEALKAGKKVKLSHKEVMQKMGELFALRHRINLSSDFLITPDFYWDRANLEELYDKTCQFLSITRRVKVMNEKLQHCMELTDLMRNHLNEKRALRLEWMIVILITIEVMFELGRVFF
binds | Mouse ATP5D in pCMV-Myc, transfected (protein, UniProt Q9D3D9 23-168) AEAAAAPAPAAGPGQMSFTFASPTQVFFDSANVKQVDVPTLTGAFGILASHVPTLQVLRPGLVVVHTEDGTTTKYFVSSGSVTVNADSSVQLLAEEAVTLDMLDLGAARANLEKAQSELSGAADEAARAEIQIRIEANEALVKALE
binds | Mouse ENTPD5 in pCMV-Myc, transfected (enzyme, UniProt Q9WUZ9 25-427) QQTWFEGVFLSSMCPINVSAGTFYGIMFDAGSTGTRIHVYTFVQKTAGQLPFLEGEIFDSVKPGLSAFVDQPKQGAETVQELLEVAKDSIPRSHWERTPVVLKATAGLRLLPEQKAQALLLEVEEIFKNSPFLVPDGSVSIMDGSYEGILAWVTVNFLTGQLHGRGQETVGTLDLGGASTQITFLPQFEKTLEQTPRGYLTSFEMFNSTFKLYTHSYLGFGLKAARLATLGALEAKGTDGHTFRSACLPRWLEAEWIFGGVKYQYGGNQEGEMGFEPCYAEVLRVVQGKLHQPEEVRGSAFYAFSYYYDRAADTHLIDYEKGGVLKVEDFERKAREVCDNLGSFSSGSPFLCMDLTYITALLKDGFGFADGTLLQLTKKVNNIETGWALGATFHLLQSLGITS
binds | Mouse CPT2 in pCMV-Myc, transfected (enzyme, UniProt P52825 26-658) SAVSGPAEYLQHSIVPTMHYQDSLPRLPIPKLEDTMKRYLSAQKPLLNDSQFRKTEVLCKDFENGIGKELHAHLLAQDKQNKHTSYISGPWFDMYLTARDSVVLNFNPFMAFNPDPKSEYNDQLTRATNLTVSAVRFLKTLRAGLLEPEVFHLNPARSDTDAFKRLIRFVPSSLSWYGAYLVNAYPLDMSQYFRLFNSTRIPKPSRDELFTDTKARHLLVLRKGHFYVFDVLDQDGNIVNPSEIQAHLKYILSDSSPVPEFPLAYLTSENRDVWAELRQKLIHGGNEETLRKVDSAVFCLCLDDFPMKDLVHLSHTMLHGDGTNRWFDKSFNLIVAKDGTAAVHFEHAWGDGVAVLRFFNEVFRDSTQTPAIAPQSQPAATDSSVSVQKLSFKLSSALKAGVTAAKEKFDATMKTLTIDAIQFQRGGKEFLKKKKLSPDAVAQLAFQMAFLRQYGQTVATYESCSTAAFKHGRTETIRPASIFTKRCSEAFVREPSKHSVGELQHMMAECSKYHGQLTKEAAMGQGFDRHLFALRYLAAARGVTLPELYQDPAYQRINHNILSTSTLSSPAVSLGGFAPVVPDGFGIAYAVHDDWIGCNVSSYSGRNAREFLHCVQKCLEDMFDALEGKAIKT

What follows are binders tested against HRD1, endogenous (co-IP of Fig. 3g; cells or tissue not stated) (UniProt Q86TM6) (assay: co-IP; endogenous proteins; anti-HRD1 immunoprecipitates against normal rabbit IgG controls, immunoblotting; cells or tissue not stated).

binding | Binder
binds | HSD17B4, endogenous (co-IP of Fig. 3g; cells or tissue not stated) (enzyme, UniProt P51659 1-736) MGSPLRFDGRVVLVTGAGAGLGRAYALAFAERGALVVVNDLGGDFKGVGKGSLAADKVVEEIRRRGGKAVANYDSVEEGEKVVKTALDAFGRIDVVVNNAGILRDRSFARISDEDWDIIHRVHLRGSFQVTRAAWEHMKKQKYGRIIMTSSASGIYGNFGQANYSAAKLGLLGLANSLAIEGRKSNIHCNTIAPNAGSRMTQTVMPEDLVEALKPEYVAPLVLWLCHESCEENGGLFEVGAGWIGKLRWERTLGAIVRQKNHPMTPEAVKANWKKICDFENASKPQSIQESTGSIIEVLSKIDSEGGVSANHTSRATSTATSGFAGAIGQKLPPFSYAYTELEAIMYALGVGASIKDPKDLKFIYEGSSDFSCLPTFGVIIGQKSMMGGGLAEIPGLSINFAKVLHGEQYLELYKPLPRAGKLKCEAVVADVLDKGSGVVIIMDVYSYSEKELICHNQFSLFLVGSGGFGGKRTSDKVKVAVAIPNRPPDAVLTDTTSLNQAALYRLSGDWNPLHIDPNFASLAGFDKPILHGLCTFGFSARRVLQQFADNDVSRFKAIKARFAKPVYPGQTLQTEMWKEGNRIHFQTKVQETGDIVISNAYVDLAPTSGTSAKTPSEGGKLQSTFVFEEIGRRLKDIGPEVVKKVNAVFEWHITKGGNIGAKWTIDLKSGSGKVYQGPAKGAADTTIILSDEDFMEVVLGKLDPQKAFFSGRLKARGNIMLSQKLQMILKDYAKL
binds | ENTPD5, endogenous (co-IP of Fig. 3g; cells or tissue not stated) (enzyme, UniProt O75356 25-428) NQQTWFEGIFLSSMCPINVSASTLYGIMFDAGSTGTRIHVYTFVQKMPGQLPILEGEVFDSVKPGLSAFVDQPKQGAETVQGLLEVAKDSIPRSHWKKTPVVLKATAGLRLLPEHKAKALLFEVKEIFRKSPFLVPKGSVSIMDGSDEGILAWVTVNFLTGQLHGHRQETVGTLDLGGASTQITFLPQFEKTLEQTPRGYLTSFEMFNSTYKLYTHSYLGFGLKAARLATLGALETEGTDGHTFRSACLPRWLEAEWIFGGVKYQYGGNQEGEVGFEPCYAEVLRVVRGKLHQPEEVQRGSFYAFSYYYDRAVDTDMIDYEKGGILKVEDFERKAREVCDNLENFTSGSPFLCMDLSYITALLKDGFGFADSTVLQLTKKVNNIETGWALGATFHLLQSLGISH
binds | RMND1, endogenous (co-IP of Fig. 3g; cells or tissue not stated) (protein, UniProt Q9NWS8 13-449) HHILSKAHQCRRIGHLMLKPLKEFENTTCSTLTIRQSLDLFLPDKTASGLNKSQILEMNQKKSDTSMLSPLNAARCQDEKAHLPTMKSFGTHRRVTHKPNLLGSKWFIKILKRHFSSVSTETFVPKQDFPQVKRPLKASRTRQPSRTNLPVLSVNEDLMHCTAFATADEYHLGNLSQDLASHGYVEVTSLPRDAANILVMGVENSAKEGDPGTIFFFREGAAVFWNVKDKTMKHVMKVLEKHEIQPYEIALVHWENEELNYIKIEGQSKLHRGEIKLNSELDLDDAILEKFAFSNALCLSVKLAIWEASLDKFIESIQSIPEALKAGKKVKLSHEEVMQKIGELFALRHRINLSSDFLITPDFYWDRENLEGLYDKTCQFLSIGRRVKVMNEKLQHCMELTDLMRNHLNEKRALRLEWMIVILITIEVMFELGRVFF
binds | CPT2, endogenous (co-IP of Fig. 3g; cells or tissue not stated) (enzyme, UniProt P23786 26-658) SAGSGPGQYLQRSIVPTMHYQDSLPRLPIPKLEDTIRRYLSAQKPLLNDGQFRKTEQFCKSFENGIGKELHEQLVALDKQNKHTSYISGPWFDMYLSARDSVVLNFNPFMAFNPDPKSEYNDQLTRATNMTVSAIRFLKTLRAGLLEPEVFHLNPAKSDTITFKRLIRFVPSSLSWYGAYLVNAYPLDMSQYFRLFNSTRLPKPSRDELFTDDKARHLLVLRKGNFYIFDVLDQDGNIVSPSEIQAHLKYILSDSSPAPEFPLAYLTSENRDIWAELRQKLMSSGNEESLRKVDSAVFCLCLDDFPIKDLVHLSHNMLHGDGTNRWFDKSFNLIIAKDGSTAVHFEHSWGDGVAVLRFFNEVFKDSTQTPAVTPQSQPATTDSTVTVQKLNFELTDALKTGITAAKEKFDATMKTLTIDCVQFQRGGKEFLKKQKLSPDAVAQLAFQMAFLRQYGQTVATYESCSTAAFKHGRTETIRPASVYTKRCSEAFVREPSRHSAGELQQMMVECSKYHGQLTKEAAMGQGFDRHLFALRHLAAAKGIILPELYLDPAYGQINHNVLSTSTLSSPAVNLGGFAPVVSDGFGVGYAVHDNWIGCNVSSYPGRNAREFLQCVEKALEDMFDALEGKSIKS
